The text below walks through data of the supplement of paper PMC4604168 (melanoma cell lines).

The list shows a part of the results. Single values are uncertain, as repeats are few or missing.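 Imaging used 1,536-well plates; nuclei positive for cleaved PARP by antibody were divided by total DNA-stained nuclei to yield the apoptosis fraction. Doses for screening kept most cells viable, and cell lines differ markedly in resting and induced cleaved-PARP levels.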

The test system of this assay is UACC257. In words: cleaved PARP positive nuclei fraction relative to DMSO control; melanoma cells; higher = more apoptosis. The conditions noted are these: library dose: low library concentration; 72 h.
For the compound `O=C(Nc1cccc(Cl)c1)Nc1ncc(CCNc2ncnc3ccsc23)s1` + Cc1cc(SCc2sc(-c3ccc(C(F)(F)F)c(F)c3)nc2C)ccc1OCC(=O)O [GW0742] (first compound 0.0008 µM, partner dose 2 µM), the “cleaved PARP positive nuclei fraction” value was found to be 128%.

For the compound `C[C@]12O[C@H](C[C@]1(O)CO)n1c3ccccc3c3c4c(c5c6ccccc6n2c5c31)CNC4=O` [Lestaurtinib] + COc1cc2ncnc(Nc3ccc(Oc4ccccc4)cc3)c2cc1OC [SrcI1] (first compound 0.004 µM, partner dose 2 µM), the “cleaved PARP positive nuclei fraction” value turned out to be 141%.

With `C[As](C)SC[C@H](NC(=O)CC[C@H](N)C(=O)O)C(=O)NCC(=O)O` [Darinaparsin] + COc1ccc(COc2ccc(Cc3cnc(N)nc3N)cc2OC)cc1 [GW2580] (first compound 0.4 µM, partner dose 1 µM), the “cleaved PARP positive nuclei fraction” value amounted to 77.7%.

For `C[C@]12O[C@H](C[C@]1(O)CO)n1c3ccccc3c3c4c(c5c6ccccc6n2c5c31)CNC4=O` [Lestaurtinib] + COc1ccc(-c2ccc3c(N4CCOCC4)nc(N4C[C@@H](C)O[C@@H](C)C4)nc3n2)cc1CO [KU0063794] (first compound 0.004 µM, partner dose 0.02 µM), the “cleaved PARP positive nuclei fraction” value was determined as 168%.

In the case of `O=S(=O)(c1ccccc1)N(CC(F)(F)F)c1ccc(C(O)(C(F)(F)F)C(F)(F)F)cc1` + Cc1cc(SCc2sc(-c3ccc(C(F)(F)F)c(F)c3)nc2C)ccc1OCC(=O)O [GW0742] (first compound 1.4 µM, partner dose 2 µM), the “cleaved PARP positive nuclei fraction” value was determined as 68.9%.

Regarding `COc1ccc(COc2ccc(Cc3cnc(N)nc3N)cc2OC)cc1` + Cc1cc(SCc2sc(-c3ccc(C(F)(F)F)c(F)c3)nc2C)ccc1OCC(=O)O [GW0742] (first compound 1 µM, partner dose 2 µM), the “cleaved PARP positive nuclei fraction” value came out at 54.1%.

In the case of `C[As](C)SC[C@H](NC(=O)CC[C@H](N)C(=O)O)C(=O)NCC(=O)O` [Darinaparsin] + CCc1ccc(CCOc2ccc(CC3SC(=O)NC3=O)cc2)nc1 [pioglitazone] (first compound 0.4 µM, partner dose 2 µM), the “cleaved PARP positive nuclei fraction” value was determined as 118%.

With `O=C(Oc1ccc([N+](=O)[O-])cc1)N1CCC(C(O)(c2ccc3c(c2)OCO3)c2ccc3c(c2)OCO3)CC1` + CC(C)CCN1c2nc(Nc3cc(F)c(O)c(F)c3)ncc2N(C)C(=O)C1C [BID1870] (first compound 1 µM, partner dose 0.2 µM), the “cleaved PARP positive nuclei fraction” value is 312%.

Regarding `CO[C@H]1C[C@@H]2CC[C@@H](C)[C@@](O)(O2)C(=O)C(=O)N2CCCC[C@H]2C(=O)O[C@H]([C@H](C)C[C@@H]2CC[C@@H](OCCO)[C@H](OC)C2)CC(=O)[C@H](C)/C=C(\C)[C@@H](O)[C@@H](OC)C(=O)[C@H](C)C[C@H](C)/C=C/C=C/C=C/1C` [everolimus] + Cc1cc(SCc2sc(-c3ccc(C(F)(F)F)c(F)c3)nc2C)ccc1OCC(=O)O [GW0742] (first compound 0.02 µM, partner dose 2 µM), the “cleaved PARP positive nuclei fraction” value came to 184%.

On to `COc1cc(Nc2ncc(F)c(Nc3ccc4c(n3)NC(=O)C(C)(C)O4)n2)cc(OC)c1OC` [Tamatinib] + O=C(Oc1ccc([N+](=O)[O-])cc1)N1CCC(C(O)(c2ccc3c(c2)OCO3)c2ccc3c(c2)OCO3)CC1 [JZL184] (first compound 0.4 µM, partner dose 1 µM), for which the “cleaved PARP positive nuclei fraction” value was determined as 175%.

As for `COc1cc2ncnc(Nc3ccc(Oc4ccccc4)cc3)c2cc1OC` + O=C(Oc1ccc([N+](=O)[O-])cc1)N1CCC(C(O)(c2ccc3c(c2)OCO3)c2ccc3c(c2)OCO3)CC1 [JZL184] (first compound 2 µM, partner dose 1 µM), the “cleaved PARP positive nuclei fraction” value is 85.1%.

Regarding `C/C(O)=C(\C#N)C(=O)Nc1cc(Br)ccc1Br` + O=C(Oc1ccc([N+](=O)[O-])cc1)N1CCC(C(O)(c2ccc3c(c2)OCO3)c2ccc3c(c2)OCO3)CC1 [JZL184] (first compound 2 µM, partner dose 1 µM), the “cleaved PARP positive nuclei fraction” value is 70.6%.

On to `C/C(O)=C(\C#N)C(=O)Nc1cc(Br)ccc1Br` + CC(C)CCN1c2nc(Nc3cc(F)c(O)c(F)c3)ncc2N(C)C(=O)C1C [BID1870] (first compound 2 µM, partner dose 0.2 µM), for which the “cleaved PARP positive nuclei fraction” value was 131%.

On to `N#Cc1c(O)c2c(-c3ccc(-c4ccccc4O)cc3)csc2[nH]c1=O` + C/C(O)=C(\C#N)C(=O)Nc1cc(Br)ccc1Br [LFM-A13] (first compound 2 µM, partner dose 2 µM), for which the “cleaved PARP positive nuclei fraction” value was 69.4%.

Consider `C[C@]12O[C@H](C[C@]1(O)CO)n1c3ccccc3c3c4c(c5c6ccccc6n2c5c31)CNC4=O` [Lestaurtinib] + C[C@@H]1CCN(C(=O)CC#N)C[C@@H]1N(C)c1ncnc2[nH]ccc12 [CP690550] (first compound 0.004 µM, partner dose 1 µM), for which the “cleaved PARP positive nuclei fraction” value turned out to be 144%.

Take `Cc1ccc(NC(=O)c2cccc(N(C)C)c2)cc1NC(=O)c1ccc(O)cc1` + C/C(O)=C(\C#N)C(=O)Nc1cc(Br)ccc1Br [LFM-A13] (first compound 2 µM, partner dose 2 µM): the “cleaved PARP positive nuclei fraction” value came to 219%.
